Source: publication doi:10.1101/288811
These are yes or no findings as the source states them, for the method shown. Binding seen in cells or lysates may run through a third protein. Binding can be weak; no strength is given.

What was measured:
[1] = biological target: T1, BAC49563 (DctA) (Bradyrhizobium diazoefficiens USDA 110) (UniProt Q89M95); assay: split reporter
T1 sequence: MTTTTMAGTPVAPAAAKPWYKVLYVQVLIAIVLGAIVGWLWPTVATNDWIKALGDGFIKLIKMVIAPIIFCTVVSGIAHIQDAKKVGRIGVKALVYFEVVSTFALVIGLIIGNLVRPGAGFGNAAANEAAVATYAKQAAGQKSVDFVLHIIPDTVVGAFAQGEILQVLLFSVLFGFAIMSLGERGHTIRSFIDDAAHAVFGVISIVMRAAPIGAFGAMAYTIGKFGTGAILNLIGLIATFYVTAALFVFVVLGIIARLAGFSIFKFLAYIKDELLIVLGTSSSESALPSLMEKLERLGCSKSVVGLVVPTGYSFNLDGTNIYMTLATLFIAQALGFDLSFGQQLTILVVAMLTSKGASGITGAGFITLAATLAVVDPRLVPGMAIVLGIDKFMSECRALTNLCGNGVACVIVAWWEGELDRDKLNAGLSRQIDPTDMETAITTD

[2] = biological target: T2, BAC48988 (DctA) (Bradyrhizobium diazoefficiens USDA 110) (UniProt Q89NW0); assay: split reporter
T2 sequence: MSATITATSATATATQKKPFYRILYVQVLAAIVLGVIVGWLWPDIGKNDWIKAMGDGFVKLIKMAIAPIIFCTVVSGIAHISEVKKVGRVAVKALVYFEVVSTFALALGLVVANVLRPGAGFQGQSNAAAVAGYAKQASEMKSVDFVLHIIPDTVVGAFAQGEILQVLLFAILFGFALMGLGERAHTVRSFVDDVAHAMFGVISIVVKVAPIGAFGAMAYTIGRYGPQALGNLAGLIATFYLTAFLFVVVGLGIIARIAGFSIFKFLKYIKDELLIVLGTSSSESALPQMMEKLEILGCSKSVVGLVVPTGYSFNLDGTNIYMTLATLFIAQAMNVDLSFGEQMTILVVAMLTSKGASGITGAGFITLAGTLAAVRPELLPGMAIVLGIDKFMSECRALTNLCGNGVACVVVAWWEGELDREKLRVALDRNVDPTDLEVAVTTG

Question: How did the binding [1] turn out when Glyma13G158600 (from UniProt I1LZP7) was run?
Answer: binds

Question: For Glyma.02G208700 (SGF14g) (Glycine max), which binding [2] is on record?
Answer: binds

Question: What about the binding [1] of the same substance?
Answer: binds

Question: Which results are given for Glyma.14G176900 (SGF14k) (Glycine max)?
Answer: binding [2]: binds; binding [1]: binds
